Data: patent US20030108992A1
No constants are given. Whether binding was seen depends on the method and setting. Some entries that bind do so weakly or less than the wild type. For some assays here: Where a sequence is shown, tags or fusion partners need not be part of it.

T1: Fas with the death domain, CFP and YFP fusions (human), P25445
T1 chain: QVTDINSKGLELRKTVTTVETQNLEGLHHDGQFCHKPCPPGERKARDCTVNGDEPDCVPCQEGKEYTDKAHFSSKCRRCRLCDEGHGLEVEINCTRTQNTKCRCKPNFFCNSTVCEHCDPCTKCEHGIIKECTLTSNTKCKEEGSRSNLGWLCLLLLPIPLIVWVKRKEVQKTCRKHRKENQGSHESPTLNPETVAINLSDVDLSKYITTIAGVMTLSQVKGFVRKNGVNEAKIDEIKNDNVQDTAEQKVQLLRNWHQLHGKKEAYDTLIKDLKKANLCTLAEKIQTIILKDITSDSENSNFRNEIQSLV

T2: Fas (endogenous, native receptor on T lymphoma cells), P25445
T2 chain: T1 chain

B1: Fas with the death domain, CFP and YFP fusions, P25445 26-335 (receptor, human, UniProt P25445 26-335, looked up, not shown: large carriers)
chain: T1 chain
B2: FADD, Q13158 1-208 (protein, UniProt Q13158 1-208, looked up)
chain: MDPFLVLLHSVSSSLSSSELTELKFLCLGRVGKRKLERVQSGLDLFSMLLEQNDLEPGHTELLRELLASLRRHDLLRRVDDFEAGAAAGAAPGEEDLCAAFNVICDNVGKDWRRLARQLKVSDTKIDSIEDRYPRNLTERVRESLRIWKNTEKENATVAHLVGALRSCQMNLVADLVQEVQQARDLQNRSGAMSPMSWNSDASTSEAS

How the values were obtained:
[1] = target: T1, Fas with the death domain, CFP and YFP …; test: flow cytometric FRET, 293T; details: remark: other sources report otherwise
[2] = target: T2, Fas (endogenous, native receptor on T …); test: immunoprecipitation of Fas signaling complexes from H9 cells after APO-1 or FasL, Western blot; details: remark: other sources report otherwise

| Binder | binding [1] | binding [2] |
| --- | --- | --- |
| B1 | binds |  |
| B2 |  | binds |
